Results of single-concentration screens

Sequences of proteins named here, by UniProt entry; tags and fusion partners are left off. Residues count along the entry.
UniProt P9WFT3, whole entry: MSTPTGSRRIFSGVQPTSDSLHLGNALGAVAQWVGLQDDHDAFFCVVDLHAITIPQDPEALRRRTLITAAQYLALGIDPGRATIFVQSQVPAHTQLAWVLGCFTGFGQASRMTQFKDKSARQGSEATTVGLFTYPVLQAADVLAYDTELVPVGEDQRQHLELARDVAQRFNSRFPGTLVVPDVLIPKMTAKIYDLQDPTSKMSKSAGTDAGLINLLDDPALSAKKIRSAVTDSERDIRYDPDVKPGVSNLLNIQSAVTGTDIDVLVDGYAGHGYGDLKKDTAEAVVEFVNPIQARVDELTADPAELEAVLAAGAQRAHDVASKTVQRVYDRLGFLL
UniProt A4I591, 1-473: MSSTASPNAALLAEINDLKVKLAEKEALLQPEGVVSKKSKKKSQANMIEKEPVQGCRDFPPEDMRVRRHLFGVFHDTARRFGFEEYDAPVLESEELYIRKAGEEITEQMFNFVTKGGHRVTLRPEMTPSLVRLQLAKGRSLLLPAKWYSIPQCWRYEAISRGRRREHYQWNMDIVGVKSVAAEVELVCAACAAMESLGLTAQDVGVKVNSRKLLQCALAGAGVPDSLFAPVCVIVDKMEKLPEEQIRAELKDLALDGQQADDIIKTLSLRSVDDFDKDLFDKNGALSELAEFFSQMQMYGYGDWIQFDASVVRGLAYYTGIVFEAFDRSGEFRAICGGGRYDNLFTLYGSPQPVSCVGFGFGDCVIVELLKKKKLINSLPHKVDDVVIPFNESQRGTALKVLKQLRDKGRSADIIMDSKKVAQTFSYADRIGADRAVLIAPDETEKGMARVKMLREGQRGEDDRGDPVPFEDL

The filed quantity is “Percent Effect” (%).
The record does not define 0% and 100%; most values in the screen are far below 50% and negative numbers occur (in some assays of this library far below -100).
Compounds were drawn at random from those tested, without regard to their results.
A dash means the value is not listed here; it may have been measured.

MtTrpRS: 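Enzyme assay of tryptophanyl-tRNA synthetase; the read-out is not stated. Target: Tryptophan-tRNA ligase, Mycobacterium tuberculosis (UniProt P9WFT3). Compounds at 10 µM. Higher most likely means stronger inhibition; the record gives no direction and few retests gave an IC50. About 65,000 compounds were tested under these conditions; 0.098% (about 64) showed 50% or more at least once.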
LiHisRS: 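Histidine-tRNA ligase, Leishmania infantum (UniProt A4I591). Enzyme assay of histidyl-tRNA synthetase; the read-out is not stated. Tested at 30 µM. The record gives no direction; compounds that gave an IC50 in retests scored well above the rest, so higher reads as stronger inhibition. The assay is labelled LdHisRS but filed under L. infantum. Size under these conditions: about 69,000 compounds, about 410 of them at 50% or above in at least one test.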

Compound	MtTrpRS	LiHisRS
O=C(NC1(c2nccs2)CCCC1)c1cc(C2CC2)[nH]n1	-1.784%	13.68%
O=C(C1CCCCC1)N1CCC2(CC1)OCCO2	0.7337%	17.98%
CCS(=O)(=O)N1CCC2(CCC2NC(=O)c2ccn(C)c2)CC1 (stereo unspecified)	-2.528%	18.05%
CCN(CC)CCCNCC1CCOC(C)(C)C1 (stereo unspecified)	-0.8482%	10.96%
COc1cc(CNC(=O)CNc2cc(Cl)ccc2OC)ccn1	-0.8607%	28.57%
O=C(COCC1CC1)Nc1ncccc1I	-3.047%	8.861%
COc1ccc(C(C)NS(=O)(=O)c2ccc3c(c2)CCC(=O)N3)cc1F (stereo unspecified)	3.311%	-8.791%
CNc1cc(N2CCCC2CNCc2cscn2)ncn1 (stereo unspecified)	0.416%	1.835%
CSCC[C@@H]1CN2CCC[C@H]2CN1Cc1cn(C)nc1C	-	8%
Cc1nc(C(=O)N2CCN(c3ccc(Cl)c(Cl)c3)CC2)cs1	-6.891%	15.38%
CC(CCc1ccccc1)N1CCC(C(=O)Nc2ccccn2)CC1 (stereo unspecified)	-4.294%	2.632%
COCCCOc1ccc(C(=O)N(Cc2cnn(C)c2)C(C)C)cn1	-0.1679%	5.714%
Cc1ccc(-c2nc(CN3CCn4c(nnc4C4CC4)C3)co2)c(C)c1	1.371%	5.172%
CCS(=O)(=O)c1ncc(CN(C)CCc2ccccn2)n1CCOC	-1.087%	5.6%
N#CC1(NC(=O)CNCCn2cccn2)CCCCC1	-8.182%	13.13%
COCC1CN(C(=O)Cc2ccsc2)Cc2c1cnn2C (stereo unspecified)	15.24%	21%
O=S(=O)(C1CC1)N1CCO[C@H]2[C@H](OCC3CC3)CC[C@@H]21	7.713%	5.556%
CSc1c[nH]nc1NS(=O)(=O)c1cc(F)ccc1C	3.185%	4.478%
COc1ccc(Cl)cc1NC(=O)CN1CCc2nc(NC(C)=O)sc2C1	-0.1236%	25.97%
Cn1c(CN2CCN(CC3CC3)CC2)nnc1C1CCC1	-1.497%	1.923%
CSCC(C)(O)CNS(=O)(=O)c1ccc(Br)cc1 (stereo unspecified)	22.97%	22.67%
CN(Cc1ccsc1)Cc1ccc(C2CCCCO2)o1 (stereo unspecified)	-0.3882%	-45.71%
O=C(O)C1CN(Cc2cnc(C3CCCCC3)nc2)CCO1 (stereo unspecified)	11.18%	19.18%
CC(C)(C)c1ncc(C(=O)NCCNC(=O)Cc2ccccc2)s1	0.9538%	11.61%
COCC(=O)N1CCCC(C(=O)N(C)CCCc2cnn(C)c2)C1 (stereo unspecified)	-3.086%	8.889%
Cc1cccc(CN2CC[C@@H]3[C@@H]2CCN3C(=O)c2ccno2)n1	-3.752%	11.54%
CS(=O)(=O)CCC(=O)N(Cc1c(F)cccc1F)C1CCCC1	-0.9183%	-58.06%
Cc1ccc(NC(=O)N2CCCN(C(N)=O)CC2)s1	0.4776%	-2.74%
O=C(Nc1ccc(CCN2CCC(O)CC2)cc1)C1CCOCC1	-3.984%	12.31%
Cc1ccc(CC(=O)N2Cc3nccn3CC(CN(C)C)C2)cc1 (stereo unspecified)	1.398%	15.24%
O=C(c1ccco1)N1CC[C@H]2[C@H]1CCN2S(=O)(=O)C1CC1	-2.885%	5.263%
CCc1[nH]c2c(CNc3nccc(N)n3)cc(F)cc2c1C	5.475%	32.79%
COc1ccc(Br)cc1CN(C)C(C)c1nc(C(C)C)no1 (stereo unspecified)	-5.187%	8%
Cc1ncc(C(=O)N2CC(C(=O)N3CCOCC3)C2)c(C)n1	-3.034%	8.451%
CN(Cc1nnc(-c2ccco2)o1)C(C(N)=O)c1cccc(F)c1 (stereo unspecified)	-0.6135%	21.05%
COc1ccnc(NC2CCN(CC(=O)N3CCCC3)CC2)n1	-4.863%	12%
CCN(Cc1ccncc1)Cc1c[nH]nc1-c1ccc(F)cc1	-5.925%	7.895%
CCn1ccnc1CN1CCC(Oc2cccc(F)c2)(C(=O)O)CC1	2.848%	8.264%
CCC(NC(=O)C1CCN(S(C)(=O)=O)CC1)c1ccc(C)c(C)c1 (stereo unspecified)	1.227%	10.59%
COc1ccc(CNCC2CN(C3CC3)CCO2)cc1F (stereo unspecified)	-2.955%	7.609%
FC(F)(F)c1n[nH]c2c1CN(CCc1ccccn1)CC2	6.901%	21.05%
Cc1ccc(C)c(NC(=O)Cn2cc(I)cn2)c1	4.84%	7.895%
O=C(NC1CC1)N1CCCC2(CCCCN2)C1 (stereo unspecified)	-4.77%	17.48%

For reference, 3 entries once more:

{"compound": "COc1cc(CNC(=O)CNc2cc(Cl)ccc2OC)ccn1", "MtTrpRS": -0.8607, "LiHisRS": 28.57}
{"compound": "CSCC(C)(O)CNS(=O)(=O)c1ccc(Br)cc1", "stereo": "stereo unspecified", "MtTrpRS": 22.97, "LiHisRS": 22.67}
{"compound": "CCc1[nH]c2c(CNc3nccc(N)n3)cc(F)cc2c1C", "MtTrpRS": 5.475, "LiHisRS": 32.79}

Source: ChEMBL document CHEMBL3988442, “University of Dundee, Small-Polar-MMV Screening Library” (2021).